# Measured values as given in the supplement of paper PMC3334620.
# In all, about 33,000 sequences were measured (“E-score (-0.5 to 0.5)”: median about -0.016, highest 2% from about 0.3 on). Some of the results follow.
# Target: T1, Yer184c (UniProt P39961)
# T1 sequence: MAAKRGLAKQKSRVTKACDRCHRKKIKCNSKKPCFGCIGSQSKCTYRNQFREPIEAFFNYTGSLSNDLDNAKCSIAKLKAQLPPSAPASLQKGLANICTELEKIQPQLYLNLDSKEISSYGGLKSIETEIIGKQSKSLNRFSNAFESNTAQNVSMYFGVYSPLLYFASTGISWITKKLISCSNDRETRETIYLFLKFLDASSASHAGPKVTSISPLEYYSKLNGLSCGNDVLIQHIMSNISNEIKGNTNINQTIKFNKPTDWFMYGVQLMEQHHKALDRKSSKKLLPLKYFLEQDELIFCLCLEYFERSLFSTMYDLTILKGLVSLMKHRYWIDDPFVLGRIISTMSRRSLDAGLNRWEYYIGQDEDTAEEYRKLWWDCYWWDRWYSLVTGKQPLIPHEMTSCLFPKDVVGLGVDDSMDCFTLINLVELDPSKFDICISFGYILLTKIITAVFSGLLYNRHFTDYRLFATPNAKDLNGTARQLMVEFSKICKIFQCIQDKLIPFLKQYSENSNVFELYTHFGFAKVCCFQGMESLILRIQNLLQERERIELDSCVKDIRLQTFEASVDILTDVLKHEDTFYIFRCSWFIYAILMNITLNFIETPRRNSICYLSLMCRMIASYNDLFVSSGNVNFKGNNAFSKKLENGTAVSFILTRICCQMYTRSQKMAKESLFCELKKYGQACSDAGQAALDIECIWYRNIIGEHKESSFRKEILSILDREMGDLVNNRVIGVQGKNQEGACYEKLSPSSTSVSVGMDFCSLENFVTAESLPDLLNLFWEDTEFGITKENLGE
# Assay: PBM E-score (8-mer binding enrichment) (E-score (-0.5 to 0.5)); higher = stronger / more preferred TF binding
# Settings: protein concentration: 100 nM; construct: GST-full length
# Method in brief: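 Yeast transcription factors carrying a GST tag, as full-length proteins or DNA-binding domains, were produced by PURExpress in vitro transcription/translation. About 100-200 nM protein was applied to universal all-10-mer Agilent arrays, double-stranded by primer extension on fresh or once-stripped slides. Bound protein was detected with fluorescent anti-GST, and scans were normalised with masliner. The Universal PBM Analysis Suite gave each ungapped eight-base word, pooled with its reverse complement, an E-score, a modified Wilcoxon-Mann-Whitney statistic.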
row,Sequence,PBM E-score
1,AAACAGCG,0.0334
2,GTGGACGA,-0.155
3,AGAGCCGA,0.26
4,AGCTTTCC,0.134
5,ATCCGAAC,0.261
6,AGGTGAGA,0.0538
7,CTAGTACA,-0.018
8,GGCTATTA,0.0181
9,AGGGAAGA,-0.12
10,AGCCGTCG,0.0941
11,AAATACTG,-0.0439
12,ACTGCGCG,-0.125
13,CACGGAGG,0.0399
14,CATACGGG,-0.0636
15,CAAGTATA,-0.232
16,ATGGCAGC,-0.279
17,AGGAAAAC,0.0188
18,CTCACTGC,-0.0867
19,GACTATTA,0.0882
20,TTTAAAAA,0.169
21,CATGTAGG,0.00826
22,ATGGATAA,0.0299
23,ATAACGAT,-0.103
24,AGGGAATC,-0.243
25,ATAATACA,0.27

row,Sequence,PBM E-score
1,CGAACAAC,0.24
2,CGTCAGCC,0.0845
3,GATGAACC,0.00123
4,ATAGTCCG,0.239
5,GATGGGCC,-0.0855
6,AGTCATAG,-0.226
7,TAAGAGAA,0.0763
8,GATGGCTA,0.0371
9,TGAACACA,0.192
10,CCCTTTCG,-0.0672
11,AACTTCAC,0.0811
12,AGTTCTAG,0.0249
13,AGGCTAGC,-0.167
14,CAGCCAAG,-0.167
15,AACTGGGG,-0.217
16,ATGTAACG,0.11
17,AAAGACAC,0.125
18,ATACTACC,-0.126
19,GTTAGAGA,-0.0529
20,AATTCCCA,-0.123
21,AAACTAGA,-0.0867
22,CTCTACTC,-0.147
23,AGAACTTA,0.218
24,CTTTCGAA,0.0772
25,ATAGGTAC,-0.0746

row,Sequence,PBM E-score
1,AGACCATG,-0.263
2,ACCTAGGG,-0.105
3,AAACGTAA,-0.00968
4,ATATCACA,-0.0526
5,CAAGGGAC,-0.157
6,CACGGGTA,0.0568
7,AGATGGTA,-0.0403
8,AGCGTCTG,-0.149
9,ACCCTTAG,-0.142
10,TATTCAGA,-0.0185
11,ATCGTTCC,0.0025
12,CTGCTAAA,0.0837
13,AGTTACAT,-0.113
14,GCGGGACA,-0.0021
15,CGTGGCGC,-0.165
16,AAAAAGCA,-0.0149
17,GAGTTCAC,0.0324
18,TACCAATA,-0.126
19,AAAGGATG,-0.0484
20,AAAGTCAC,0.118
21,CCACATAG,-0.14
22,TCACTACA,0.14
23,CCCCCTAA,-0.312
24,CAGTAAGG,-0.0988
25,CTTAGCGC,0.105

# 52 successive records out of the list so far, for reference:
row,Sequence,PBM E-score
21,CATGTAGG,0.00826
22,ATGGATAA,0.0299
23,ATAACGAT,-0.103
24,AGGGAATC,-0.243
25,ATAATACA,0.27
1,CGAACAAC,0.24
2,CGTCAGCC,0.0845
3,GATGAACC,0.00123
4,ATAGTCCG,0.239
5,GATGGGCC,-0.0855
6,AGTCATAG,-0.226
7,TAAGAGAA,0.0763
8,GATGGCTA,0.0371
9,TGAACACA,0.192
10,CCCTTTCG,-0.0672
11,AACTTCAC,0.0811
12,AGTTCTAG,0.0249
13,AGGCTAGC,-0.167
14,CAGCCAAG,-0.167
15,AACTGGGG,-0.217
16,ATGTAACG,0.11
17,AAAGACAC,0.125
18,ATACTACC,-0.126
19,GTTAGAGA,-0.0529
20,AATTCCCA,-0.123
21,AAACTAGA,-0.0867
22,CTCTACTC,-0.147
23,AGAACTTA,0.218
24,CTTTCGAA,0.0772
25,ATAGGTAC,-0.0746
1,AGACCATG,-0.263
2,ACCTAGGG,-0.105
3,AAACGTAA,-0.00968
4,ATATCACA,-0.0526
5,CAAGGGAC,-0.157
6,CACGGGTA,0.0568
7,AGATGGTA,-0.0403
8,AGCGTCTG,-0.149
9,ACCCTTAG,-0.142
10,TATTCAGA,-0.0185
11,ATCGTTCC,0.0025
12,CTGCTAAA,0.0837
13,AGTTACAT,-0.113
14,GCGGGACA,-0.0021
15,CGTGGCGC,-0.165
16,AAAAAGCA,-0.0149
17,GAGTTCAC,0.0324
18,TACCAATA,-0.126
19,AAAGGATG,-0.0484
20,AAAGTCAC,0.118
21,CCACATAG,-0.14
22,TCACTACA,0.14

# The results go on:

row,Sequence,PBM E-score
1,AAACGAAT,0.0241
2,AGAACGAC,-0.0223
3,ACCGTGCT,-0.1
4,GGACCGCC,-0.149
5,CGCTCGAC,-0.304
6,TCGGATCA,0.31
7,CTCCTGAC,-0.228
8,AGTATTGG,-0.141
9,CAGGTATG,-0.194
10,CCGAACTA,0.323
11,CACGAGAC,-0.0174
12,ATTCAGAG,0.0787
13,GTCGGTCA,-0.0435
14,ACGCCTAG,-0.244
15,CGGGTCAC,-0.0566
16,AAACGGTT,-0.118
17,CGTATCAG,-0.0101
18,AGAATCGA,0.0425
19,AAAGTCCG,0.217
20,AGACTGAA,0.0583
21,CCCGTTCG,-0.0289
22,ACCTCCAT,-0.301
23,AACTTGGT,0.0029
24,CCCGGACA,0.283
25,ATCCAGCC,-0.0934

row,Sequence,PBM E-score
1,CTTATGTA,0.149
2,TAACGTAA,0.0251
3,ACACGCGA,0.0183
4,TAGATTCA,-0.00116
5,GTGCGTCA,-0.0158
6,CAACTAGC,0.0974
7,CTTTTAAC,-0.0576
8,GGTACGCA,0.0222
9,GTGCCGTA,0.16
10,CGGACAGA,0.189
11,ACCGTTAG,-0.0187
12,AGCCAATG,-0.202
13,AATATGAC,0.00386
14,CCTATTAA,0.0417
15,ACTCGTGG,-0.128
16,CTCTCAGA,-0.159
17,CAGATAAC,0.00569
18,GAGGAGGA,-0.262
19,CCCTGCCG,-0.0964
20,AATTATTG,0.161
21,ACCGGTAA,0.217
22,GTGTCGTA,-0.14
23,CCGCCAAC,-0.109
24,GTGAGAAA,0.17
25,CCACGGGG,-0.0617

row,Sequence,PBM E-score
1,AAAGAGTT,-0.106
2,AAACAACC,0.082
3,GTTAGAAA,0.184
4,GCCGTACA,0.148
5,CCCGCATA,0.0386
6,AGAGAGGA,-0.219
7,ATTTCTGC,0.205
8,CTTAAGCA,0.131
9,GTCGAACA,0.142
10,ACTTTGAA,0.107
11,CAGTAGTC,-0.301
12,CACCGCTC,-0.0301
13,ATCACCAC,-0.00335
14,ATAAGGGC,-0.0697
15,AGGCAAAC,0.0503
16,ACTTAGCG,0.0253
17,GTGCACGA,-0.0665
18,CAGAGAGG,-0.415
19,GGAGTGAC,-0.0944
20,CCTTCTCG,-0.243
21,ATGATATG,0.138
22,AAGTCTAG,-0.181
23,ACCATGAC,-0.0281
24,ACACAGTA,0.0746
25,ATTTGACC,0.0125

row,Sequence,PBM E-score
1,GCAAGGAC,-0.0397
2,GCACCTGA,-0.0292
3,AAGACAAC,0.212
4,GCGGAAAA,0.216
5,AATCTAAA,0.207
6,CTGATATC,0.134
7,AGATGAGA,-0.0377
8,ACCCTGAT,-0.139
9,AACGATGG,-0.0405
10,ACAGAACT,0.116
11,CTTCGTGA,-0.00663
12,ATGGGTGC,-0.281
13,AGGAGTCC,-0.12
14,AAACACTC,0.0552
15,AGGATCTC,-0.0255
16,CTGCACAA,-0.00089
17,CAACCGAC,0.238
18,AGCACACA,-0.194
19,TCTGCACA,0.0639
20,GACTGTTA,-0.0838
21,CTGTTCCA,-0.166
22,AAGCAGGC,-0.229
